Measurements: the supplement of paper PMC10849652
The list shows a part of the results.

Protein sequences, listed by entry. Tags and fused reporters are not part of them. Lines headed by an entry give the natural chain unless they say otherwise; changes in a name come on top.
UniProt P52565: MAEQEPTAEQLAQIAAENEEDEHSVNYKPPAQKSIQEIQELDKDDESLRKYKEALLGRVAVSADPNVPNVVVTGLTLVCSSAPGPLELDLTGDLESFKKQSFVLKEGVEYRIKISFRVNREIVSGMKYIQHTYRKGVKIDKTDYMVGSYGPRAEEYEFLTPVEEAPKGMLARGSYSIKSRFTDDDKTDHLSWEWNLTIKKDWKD
UniProt Q13795: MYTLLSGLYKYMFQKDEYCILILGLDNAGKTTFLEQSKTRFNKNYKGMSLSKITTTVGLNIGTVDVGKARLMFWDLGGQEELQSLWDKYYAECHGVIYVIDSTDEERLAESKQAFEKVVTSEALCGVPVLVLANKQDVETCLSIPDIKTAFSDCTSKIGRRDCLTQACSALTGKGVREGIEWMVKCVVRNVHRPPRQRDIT
UniProt P49407: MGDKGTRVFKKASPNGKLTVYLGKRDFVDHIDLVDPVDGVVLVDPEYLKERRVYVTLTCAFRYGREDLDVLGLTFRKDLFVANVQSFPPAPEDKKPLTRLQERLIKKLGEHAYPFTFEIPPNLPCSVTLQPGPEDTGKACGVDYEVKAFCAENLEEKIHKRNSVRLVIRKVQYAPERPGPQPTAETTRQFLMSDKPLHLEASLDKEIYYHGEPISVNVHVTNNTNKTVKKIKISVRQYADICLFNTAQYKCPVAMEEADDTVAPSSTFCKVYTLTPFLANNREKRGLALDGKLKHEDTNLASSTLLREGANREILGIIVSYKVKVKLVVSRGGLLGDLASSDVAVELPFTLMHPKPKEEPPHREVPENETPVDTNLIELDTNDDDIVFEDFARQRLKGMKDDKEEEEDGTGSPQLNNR
UniProt Q66PJ3: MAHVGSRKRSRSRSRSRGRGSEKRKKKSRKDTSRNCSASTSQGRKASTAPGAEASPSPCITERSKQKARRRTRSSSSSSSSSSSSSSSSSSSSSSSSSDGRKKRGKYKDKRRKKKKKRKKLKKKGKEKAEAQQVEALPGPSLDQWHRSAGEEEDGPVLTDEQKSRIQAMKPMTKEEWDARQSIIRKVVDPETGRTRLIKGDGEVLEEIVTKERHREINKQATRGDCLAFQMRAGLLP
UniProt Q9Y587: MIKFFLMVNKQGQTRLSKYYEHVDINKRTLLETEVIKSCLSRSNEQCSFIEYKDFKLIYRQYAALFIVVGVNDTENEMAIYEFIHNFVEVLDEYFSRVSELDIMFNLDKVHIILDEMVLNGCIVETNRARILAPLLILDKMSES
UniProt Q7Z2E3: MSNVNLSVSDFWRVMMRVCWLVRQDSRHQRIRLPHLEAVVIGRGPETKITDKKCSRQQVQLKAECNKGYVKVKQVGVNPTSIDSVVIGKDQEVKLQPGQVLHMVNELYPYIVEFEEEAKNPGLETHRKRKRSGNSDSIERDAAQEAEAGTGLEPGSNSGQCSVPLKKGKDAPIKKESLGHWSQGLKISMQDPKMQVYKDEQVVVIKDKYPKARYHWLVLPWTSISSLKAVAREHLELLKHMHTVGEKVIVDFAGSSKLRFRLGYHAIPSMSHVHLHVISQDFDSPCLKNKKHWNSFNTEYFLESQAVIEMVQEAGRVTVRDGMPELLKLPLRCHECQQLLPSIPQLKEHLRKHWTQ
UniProt P61204: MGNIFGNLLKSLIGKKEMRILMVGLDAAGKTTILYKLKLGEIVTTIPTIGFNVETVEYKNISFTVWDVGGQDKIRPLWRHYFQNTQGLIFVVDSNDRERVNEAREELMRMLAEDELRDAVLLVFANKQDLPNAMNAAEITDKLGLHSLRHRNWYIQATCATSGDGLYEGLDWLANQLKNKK
UniProt Q92747, whole entry, looked up: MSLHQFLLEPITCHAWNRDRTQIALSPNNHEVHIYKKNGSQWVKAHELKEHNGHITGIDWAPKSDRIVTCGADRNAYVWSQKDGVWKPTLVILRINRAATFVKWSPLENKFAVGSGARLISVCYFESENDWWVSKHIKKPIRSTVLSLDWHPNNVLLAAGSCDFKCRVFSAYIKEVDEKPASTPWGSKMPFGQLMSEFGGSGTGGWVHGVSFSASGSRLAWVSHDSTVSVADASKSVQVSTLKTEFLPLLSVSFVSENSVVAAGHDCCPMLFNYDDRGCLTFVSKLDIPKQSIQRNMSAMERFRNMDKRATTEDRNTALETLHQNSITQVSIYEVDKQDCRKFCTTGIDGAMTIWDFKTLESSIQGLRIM
UniProt P98171: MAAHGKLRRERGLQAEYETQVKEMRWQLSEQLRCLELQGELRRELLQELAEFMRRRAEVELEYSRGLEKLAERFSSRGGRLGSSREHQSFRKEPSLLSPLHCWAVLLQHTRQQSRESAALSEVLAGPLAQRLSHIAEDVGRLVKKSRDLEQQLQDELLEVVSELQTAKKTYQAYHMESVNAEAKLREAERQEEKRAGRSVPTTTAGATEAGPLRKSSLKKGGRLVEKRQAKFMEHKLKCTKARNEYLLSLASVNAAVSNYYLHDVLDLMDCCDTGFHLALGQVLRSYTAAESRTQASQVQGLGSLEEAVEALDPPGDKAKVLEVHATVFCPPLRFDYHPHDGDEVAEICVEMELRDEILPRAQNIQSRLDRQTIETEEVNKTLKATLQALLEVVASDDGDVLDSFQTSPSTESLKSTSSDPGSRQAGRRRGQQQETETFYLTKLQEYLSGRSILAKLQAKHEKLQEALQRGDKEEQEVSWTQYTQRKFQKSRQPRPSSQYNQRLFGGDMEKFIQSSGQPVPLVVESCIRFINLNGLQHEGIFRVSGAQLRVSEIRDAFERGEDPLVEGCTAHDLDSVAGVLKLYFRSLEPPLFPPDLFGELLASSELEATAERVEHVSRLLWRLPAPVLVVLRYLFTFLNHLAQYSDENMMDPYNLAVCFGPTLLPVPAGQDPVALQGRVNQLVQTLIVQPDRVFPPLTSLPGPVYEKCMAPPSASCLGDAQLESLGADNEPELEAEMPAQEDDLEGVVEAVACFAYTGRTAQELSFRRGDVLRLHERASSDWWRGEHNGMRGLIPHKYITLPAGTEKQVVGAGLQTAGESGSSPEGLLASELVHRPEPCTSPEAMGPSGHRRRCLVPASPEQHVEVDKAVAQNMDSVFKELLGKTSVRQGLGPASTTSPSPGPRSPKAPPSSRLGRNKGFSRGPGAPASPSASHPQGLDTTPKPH
UniProt Q9Y4X5: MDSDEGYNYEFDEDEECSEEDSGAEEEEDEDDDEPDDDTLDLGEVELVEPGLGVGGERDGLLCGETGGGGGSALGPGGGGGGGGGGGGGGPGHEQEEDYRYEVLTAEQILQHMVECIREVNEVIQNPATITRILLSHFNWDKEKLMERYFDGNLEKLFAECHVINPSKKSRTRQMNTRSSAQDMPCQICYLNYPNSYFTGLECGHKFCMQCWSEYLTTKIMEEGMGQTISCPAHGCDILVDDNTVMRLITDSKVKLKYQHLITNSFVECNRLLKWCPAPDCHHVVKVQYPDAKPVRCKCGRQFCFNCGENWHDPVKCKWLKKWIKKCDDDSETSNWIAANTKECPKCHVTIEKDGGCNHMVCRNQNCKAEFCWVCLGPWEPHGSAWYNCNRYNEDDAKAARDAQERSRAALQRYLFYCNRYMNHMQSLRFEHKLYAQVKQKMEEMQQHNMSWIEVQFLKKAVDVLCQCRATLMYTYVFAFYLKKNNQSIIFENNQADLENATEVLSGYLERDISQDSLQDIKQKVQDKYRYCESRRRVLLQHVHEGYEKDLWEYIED
UniProt Q9Y6D6: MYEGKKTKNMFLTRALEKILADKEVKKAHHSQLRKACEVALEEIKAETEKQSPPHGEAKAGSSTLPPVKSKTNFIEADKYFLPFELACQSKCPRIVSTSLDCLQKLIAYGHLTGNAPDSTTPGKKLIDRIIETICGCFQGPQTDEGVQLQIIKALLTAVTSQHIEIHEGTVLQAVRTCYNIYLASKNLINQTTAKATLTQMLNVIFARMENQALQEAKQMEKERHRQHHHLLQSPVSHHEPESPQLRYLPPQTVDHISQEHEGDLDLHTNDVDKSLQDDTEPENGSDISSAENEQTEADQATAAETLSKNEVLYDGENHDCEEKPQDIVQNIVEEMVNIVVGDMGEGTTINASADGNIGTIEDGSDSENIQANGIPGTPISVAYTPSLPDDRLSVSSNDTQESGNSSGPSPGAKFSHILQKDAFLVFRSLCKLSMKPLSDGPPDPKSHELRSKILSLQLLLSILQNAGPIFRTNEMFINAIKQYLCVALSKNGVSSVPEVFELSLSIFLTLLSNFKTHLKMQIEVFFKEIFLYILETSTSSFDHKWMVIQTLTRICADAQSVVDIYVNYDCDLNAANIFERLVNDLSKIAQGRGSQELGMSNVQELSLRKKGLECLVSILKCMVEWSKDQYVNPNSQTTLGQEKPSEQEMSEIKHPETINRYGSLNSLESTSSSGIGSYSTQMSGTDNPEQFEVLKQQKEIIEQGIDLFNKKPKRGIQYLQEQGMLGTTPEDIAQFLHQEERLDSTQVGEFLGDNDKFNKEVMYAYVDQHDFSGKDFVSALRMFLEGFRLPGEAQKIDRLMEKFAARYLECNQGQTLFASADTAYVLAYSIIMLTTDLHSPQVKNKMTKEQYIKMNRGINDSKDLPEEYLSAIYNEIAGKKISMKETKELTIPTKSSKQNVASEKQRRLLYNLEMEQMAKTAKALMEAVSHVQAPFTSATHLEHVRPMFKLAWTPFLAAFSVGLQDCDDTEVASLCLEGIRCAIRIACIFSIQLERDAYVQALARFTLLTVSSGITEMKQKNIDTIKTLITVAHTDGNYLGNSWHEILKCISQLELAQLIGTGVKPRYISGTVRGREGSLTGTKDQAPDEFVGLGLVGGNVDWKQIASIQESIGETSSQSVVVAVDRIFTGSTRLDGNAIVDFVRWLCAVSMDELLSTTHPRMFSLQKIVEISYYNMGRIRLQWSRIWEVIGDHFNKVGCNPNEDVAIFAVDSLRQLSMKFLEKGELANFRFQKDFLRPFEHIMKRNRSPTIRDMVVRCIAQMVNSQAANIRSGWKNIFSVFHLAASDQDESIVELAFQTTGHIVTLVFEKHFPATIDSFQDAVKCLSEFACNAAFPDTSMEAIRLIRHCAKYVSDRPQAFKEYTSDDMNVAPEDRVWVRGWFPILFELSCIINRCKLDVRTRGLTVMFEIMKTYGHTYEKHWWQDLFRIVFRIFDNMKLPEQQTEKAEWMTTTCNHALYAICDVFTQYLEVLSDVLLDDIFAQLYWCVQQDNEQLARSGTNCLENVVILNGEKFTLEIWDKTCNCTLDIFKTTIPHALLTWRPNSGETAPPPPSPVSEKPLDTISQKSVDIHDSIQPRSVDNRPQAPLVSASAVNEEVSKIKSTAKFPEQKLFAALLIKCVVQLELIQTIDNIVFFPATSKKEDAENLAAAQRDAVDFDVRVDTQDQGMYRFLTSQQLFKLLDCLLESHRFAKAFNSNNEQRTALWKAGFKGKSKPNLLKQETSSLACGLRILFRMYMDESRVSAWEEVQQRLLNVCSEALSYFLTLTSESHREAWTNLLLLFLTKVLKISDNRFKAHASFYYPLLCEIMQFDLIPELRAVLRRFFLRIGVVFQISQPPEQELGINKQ
UniProt P10398: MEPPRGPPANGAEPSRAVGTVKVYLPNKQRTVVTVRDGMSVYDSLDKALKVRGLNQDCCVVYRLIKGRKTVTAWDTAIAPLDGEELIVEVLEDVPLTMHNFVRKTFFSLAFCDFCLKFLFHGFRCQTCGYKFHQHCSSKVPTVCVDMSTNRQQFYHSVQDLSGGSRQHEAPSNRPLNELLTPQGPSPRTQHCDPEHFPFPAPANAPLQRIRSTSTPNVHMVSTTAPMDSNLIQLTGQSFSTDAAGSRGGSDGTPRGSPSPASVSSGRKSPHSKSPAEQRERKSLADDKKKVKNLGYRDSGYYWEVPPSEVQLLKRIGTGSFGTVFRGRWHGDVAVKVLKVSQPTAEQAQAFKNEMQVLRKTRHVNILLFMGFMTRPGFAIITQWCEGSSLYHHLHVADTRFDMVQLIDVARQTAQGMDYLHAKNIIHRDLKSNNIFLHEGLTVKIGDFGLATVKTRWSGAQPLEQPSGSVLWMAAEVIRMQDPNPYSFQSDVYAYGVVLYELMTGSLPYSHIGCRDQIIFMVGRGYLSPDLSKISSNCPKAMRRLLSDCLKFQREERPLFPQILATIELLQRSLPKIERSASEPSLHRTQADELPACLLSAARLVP
UniProt Q96KC2: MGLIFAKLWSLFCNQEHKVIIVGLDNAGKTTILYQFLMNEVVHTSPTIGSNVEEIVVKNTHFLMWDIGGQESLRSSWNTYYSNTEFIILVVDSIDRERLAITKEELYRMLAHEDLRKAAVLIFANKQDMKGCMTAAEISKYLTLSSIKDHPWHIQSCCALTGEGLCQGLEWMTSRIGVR
UniProt P02649, whole entry, looked up: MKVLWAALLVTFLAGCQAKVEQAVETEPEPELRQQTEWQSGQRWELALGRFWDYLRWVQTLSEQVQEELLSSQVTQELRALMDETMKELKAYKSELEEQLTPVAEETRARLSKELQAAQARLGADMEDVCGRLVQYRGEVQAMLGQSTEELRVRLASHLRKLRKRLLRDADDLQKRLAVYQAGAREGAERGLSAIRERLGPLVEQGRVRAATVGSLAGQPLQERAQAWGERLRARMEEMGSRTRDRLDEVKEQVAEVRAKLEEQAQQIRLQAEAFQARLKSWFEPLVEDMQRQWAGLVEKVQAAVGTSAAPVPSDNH

Legend:
Test in all cases: log2 fold change, soluble protein after heating vs DMSO (PISA); higher = thermal stabilisation; K562 lysate, 10 uM; active = over 0.2 and 3.5 SD of the protein, either way, in both replicates (recomputed)
[1] = compound: NCC(=O)Nc1ccc(-n2nc(C(F)(F)F)cc2-c2ccc3c(ccc4ccccc43)c2)cc1
Method in brief: (§1)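 A 30 min treatment with 10 μM compound was applied to crude K562 extract at 1 mg/mL protein in PBS pH 7.4 with 1 mM MgCl2. Heating for 3 min spanned 48°C-58°C, after which aliquots were pooled, adjusted to 0.5% NP-40 at 4°C and spun at 21,000xg for 90 min. TMTpro 16plex LC-MS/MS of the supernatant, with channel sums equalised, gave values recorded as log-two fold change in thermal stability against solvent controls, from duplicates.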

vorinostat = compound: O=C(CCCCCCC(=O)Nc1ccccc1)NO [vorinostat]
Method in brief: as §1

silmitasertib = compound: O=C(O)c1ccc2c(c1)nc(Nc1cccc(Cl)c1)c1ccncc12 [silmitasertib]
Method in brief: as §1

[2] = compound: O=C1NC(=O)C(c2cnc3ccccn23)=C1c1cn2c3c(cc(F)cc13)CN(C(=O)N1CCCCC1)CC2
Method in brief: as §1

entospletinib = compound: c1cn2cc(-c3ccc4cn[nH]c4c3)nc(Nc3ccc(N4CCOCC4)cc3)c2n1 [entospletinib]
Method in brief: as §1

Measured: log2 fold change

APMAP (UniProt Q9HDC9)
inactive: [1] 0.007 | vorinostat 0.084 | silmitasertib -0.001 | [2] -0.033 | entospletinib 0

ARID1A (UniProt O14497)
inactive: [1] -0.001 | vorinostat -0.1 | silmitasertib 0.007 | [2] -0.022 | entospletinib -0.015

ARHGDIA (UniProt P52565)
inactive: [1] 0.013 | vorinostat 0.123 | silmitasertib -0.035 | [2] -0.007 | entospletinib 0.012

ARFRP1 (UniProt Q13795)
inactive: [1] 0.068 | vorinostat -0.123 | silmitasertib 0.039 | [2] -0.037 | entospletinib -0.039

ARHGEF2 (UniProt Q92974)
inactive: [1] 0.042 | silmitasertib -0.029 | [2] 0.007 | entospletinib 0
active: vorinostat -0.248

ARSB (UniProt P15848)
inactive: [1] -0.006 | vorinostat 0.094 | silmitasertib 0.034 | [2] 0.01 | entospletinib 0.018

ARPC4 isoform 3 (UniProt P59998)
inactive: [1] -0.025 | vorinostat 0.109 | silmitasertib 0.016 | [2] -0.059 | entospletinib 0.006

APOBEC3F (UniProt Q8IUX4)
inactive: [1] 0.102 | vorinostat -0.143 | silmitasertib -0.244 | [2] 0.037 | entospletinib 0.052

ARRB1 (UniProt P49407)
inactive: [1] 0.016 | vorinostat 0.015 | silmitasertib -0.009 | [2] 0.019 | entospletinib -0.003

ARPC5 (UniProt O15511)
inactive: [1] 0.006 | vorinostat 0.091 | silmitasertib -0.004 | [2] -0.02 | entospletinib -0.015

ARFGAP1 (UniProt Q8N6T3)
inactive: [1] 0.063 | vorinostat 0.253 | silmitasertib -0.066 | [2] -0.12 | entospletinib 0.038

APAF1 (UniProt O14727)
inactive: [1] 0.021 | silmitasertib 0.032 | [2] 0.057 | entospletinib 0.032
active: vorinostat -0.292

3 successive records from above, for reference:
ARRB1 (UniProt P49407)
inactive: [1] 0.016 | vorinostat 0.015 | silmitasertib -0.009 | [2] 0.019 | entospletinib -0.003

ARPC5 (UniProt O15511)
inactive: [1] 0.006 | vorinostat 0.091 | silmitasertib -0.004 | [2] -0.02 | entospletinib -0.015

ARFGAP1 (UniProt Q8N6T3)
inactive: [1] 0.063 | vorinostat 0.253 | silmitasertib -0.066 | [2] -0.12 | entospletinib 0.038

(cont.)

ARL6IP4 (UniProt Q66PJ3)
inactive: [1] 0.049 | vorinostat 0.011 | silmitasertib 0.002 | [2] -0.001 | entospletinib -0.084

AP4S1 (UniProt Q9Y587)
inactive: [1] -0.146 | vorinostat 0.058 | silmitasertib -0.03 | [2] 0.015 | entospletinib 0.055

ARPC2 (UniProt O15144)
inactive: [1] 0.002 | vorinostat 0.136 | silmitasertib -0.02 | [2] -0.03 | entospletinib 0.009

APOBEC3C (UniProt Q9NRW3)
inactive: [1] 0.055 | silmitasertib 0.043 | [2] -0.066 | entospletinib -0.007
active: vorinostat -0.278

ARPC5L (UniProt Q9BPX5)
inactive: [1] 0.008 | vorinostat 0.113 | silmitasertib -0.004 | [2] -0.029 | entospletinib -0.008

APTX (UniProt Q7Z2E3)
inactive: [1] 0.019 | vorinostat -0.23 | silmitasertib 0.045 | [2] 0.02 | entospletinib -0.098

ARHGAP17 (UniProt Q68EM7)
inactive: [1] -0.005 | vorinostat 0.08 | silmitasertib -0.002 | [2] -0.023 | entospletinib -0.014

ARHGAP5 (UniProt Q13017)
inactive: [1] -0.04 | vorinostat -0.005 | silmitasertib 0.031 | [2] 0.052 | entospletinib 0.032

APBA2 (UniProt Q99767)
inactive: [1] -0.024 | vorinostat -0.096 | silmitasertib 0.023 | [2] 0.02 | entospletinib 0.002

ARF3 (UniProt P61204)
inactive: [1] -0.015 | vorinostat 0.107 | silmitasertib -0.029 | [2] -0.002 | entospletinib -0.005

ARFGEF2 (UniProt Q9Y6D5)
inactive: [1] 0.068 | vorinostat -0.166 | silmitasertib 0.002 | [2] 0.007 | entospletinib -0.001

APOBR (UniProt Q0VD83)
inactive: [1] 0.074 | vorinostat 0.073 | silmitasertib 0 | [2] -0.038 | entospletinib 0

ARID3A (UniProt Q99856)
inactive: [1] 0.003 | vorinostat -0.107 | silmitasertib 0.014 | [2] 0.03 | entospletinib -0.025

ARRB2 isoform 3 (UniProt P32121)
inactive: [1] 0.074 | vorinostat 0.079 | silmitasertib 0.007 | [2] -0.02 | entospletinib 0.027

ARMC8 (UniProt Q8IUR7)
inactive: [1] 0.01 | vorinostat -0.143 | silmitasertib 0.017 | [2] 0.028 | entospletinib -0.012

APOBEC3D (UniProt Q96AK3)
inactive: [1] 0.057 | vorinostat 0.053 | silmitasertib -0.071 | [2] 0.035 | entospletinib -0.011

ARPC1A (UniProt Q92747)
inactive: [1] 0.024 | vorinostat 0.05 | silmitasertib 0.006 | [2] 0.006 | entospletinib -0.002

ARHGAP12 (UniProt Q8IWW6)
inactive: [1] 0.15 | vorinostat 0.09 | silmitasertib -0.067 | [2] 0.026 | entospletinib 0.024

ARGLU1 (UniProt Q9NWB6)
inactive: [1] 0.01 | vorinostat 0.116 | silmitasertib 0.008 | [2] -0.067 | entospletinib -0.054

ARFIP2 (UniProt P53365)
inactive: [1] 0.014 | vorinostat -0.062 | silmitasertib -0.031 | [2] -0.043 | entospletinib 0.032

APOO (UniProt Q9BUR5)
inactive: [1] -0.035 | vorinostat 0.073 | silmitasertib 0.032 | [2] -0.027 | entospletinib 0.015

ARPIN isoform 2 (UniProt Q7Z6K5)
inactive: [1] 0.03 | vorinostat -0.099 | silmitasertib 0.039 | [2] -0.011 | entospletinib -0.233

ARHGAP4 isoform 2 (UniProt P98171)
inactive: [1] 0.005 | vorinostat -0.15 | silmitasertib 0.011 | [2] 0.045 | entospletinib 0.001

ARHGAP35 (UniProt Q9NRY4)
inactive: [1] 0.014 | vorinostat -0.101 | silmitasertib 0.018 | [2] 0.012 | entospletinib 0.015

APBA3 (UniProt O96018)
inactive: [1] 0.223 | vorinostat 0.018 | silmitasertib -0.083 | [2] 0.115 | entospletinib -0.091

APIP (UniProt Q96GX9)
inactive: [1] 0.015 | vorinostat 0.077 | silmitasertib 0.011 | [2] 0.014 | entospletinib -0.027

ARIH1 (UniProt Q9Y4X5)
inactive: [1] -0.008 | vorinostat 0.015 | silmitasertib 0.019 | [2] -0.02 | entospletinib 0.032

APPL1 (UniProt Q9UKG1)
inactive: [1] 0.031 | vorinostat 0.016 | silmitasertib 0.003 | [2] 0.015 | entospletinib 0.012

ARID1B isoform 3 (UniProt Q8NFD5)
inactive: [1] -0.015 | vorinostat -0.088 | silmitasertib 0.035 | [2] 0.035 | entospletinib -0.011

ARL2BP (UniProt Q9Y2Y0)
inactive: [1] 0.045 | vorinostat -0.077 | silmitasertib 0.027 | [2] -0.012 | entospletinib 0.052

ARFGAP3 (UniProt Q9NP61)
inactive: [1] 0.022 | vorinostat -0.091 | silmitasertib -0.046 | [2] -0.018 | entospletinib 0.019

ARFGEF1 (UniProt Q9Y6D6)
inactive: [1] 0.012 | vorinostat -0.105 | silmitasertib 0.022 | [2] 0.009 | entospletinib 0.02

APOL2 (UniProt J3KQL8)
inactive: [1] 0.145 | vorinostat -0.042 | silmitasertib 0.068 | [2] 0.052 | entospletinib -0.014

ARRB1 isoform 2 (UniProt P49407)
inactive: [1] 0.011 | vorinostat -0.004 | silmitasertib -0.031 | [2] 0.194 | entospletinib 0.232

APOB (UniProt P04114)
inactive: [1] 0.063 | vorinostat 0.154 | silmitasertib 0.007 | [2] -0.012 | entospletinib 0.05

ARHGAP45 isoform 2 (UniProt Q92619)
inactive: [1] -0.028 | vorinostat -0.093 | silmitasertib -0.004 | [2] 0.048 | entospletinib -0.014

ARAF (UniProt P10398)
inactive: [1] -0.072 | silmitasertib -0.023 | [2] 0.019 | entospletinib -0.011
active: vorinostat -0.487

ARL5B (UniProt Q96KC2)
inactive: [1] -0.025 | vorinostat 0.121 | silmitasertib -0.2 | [2] -0.042 | entospletinib 0.02

ARMCX3 (UniProt Q9UH62)
active: vorinostat -0.279
inactive: [1] 0.042 | silmitasertib 0.036 | [2] -0.024 | entospletinib 0.047

API5 isoform 2 (UniProt Q9BZZ5)
inactive: [1] 0.042 | vorinostat 0.108 | silmitasertib 0.014 | [2] 0.028 | entospletinib -0.053

APOE (UniProt P02649)
inactive: [1] -0.011 | vorinostat 0.096 | silmitasertib 0.023 | [2] -0.063 | entospletinib 0.063
